The nature of this data set: in vivo. The note with it: rat, iv, male or female Wistar rats, i.v. tail vein, Probit regression, confidence interval p=0.05 in parentheses, read-out: LD50 i.v. (acute tox., rat). The source says: LD50 i.v. =lethal dose in mg/kg for 50% of the experimental animals of an orientating acute toxicity test on male or female Wistar rats of our own breed, i.v. administration in the tail vein, 3-4 dosages, 10 animals per group. Data analyzed by the Probit regression analysis with a confidence interval of p=0.05 (values given in parentheses).

One may read the LD50 as the dose expected to kill half of the subjects tested. For the compound `CCN(CC)CC(=O)Nc1c(C)cccc1C` [Lidocaine, lidocaine, reference compound], the LD50 was 18 mg/kg.

The values above are taken from patent publication US5116974A, “3-carbalkoxyamino-5-aminoacyl-5H-dibenz[b,f]azepines, and methods for making” (Arzneimittelwerk Dresden GmbH, priority 1989, dated 1992).
